Measurements: paper PMC3024417
No constants are given. Whether binding was seen depends on the method and setting. In cells and extracts the contact can be indirect.

The chains behind the UniProt entries cited, without tags or fusion partners.
UniProt Q05397: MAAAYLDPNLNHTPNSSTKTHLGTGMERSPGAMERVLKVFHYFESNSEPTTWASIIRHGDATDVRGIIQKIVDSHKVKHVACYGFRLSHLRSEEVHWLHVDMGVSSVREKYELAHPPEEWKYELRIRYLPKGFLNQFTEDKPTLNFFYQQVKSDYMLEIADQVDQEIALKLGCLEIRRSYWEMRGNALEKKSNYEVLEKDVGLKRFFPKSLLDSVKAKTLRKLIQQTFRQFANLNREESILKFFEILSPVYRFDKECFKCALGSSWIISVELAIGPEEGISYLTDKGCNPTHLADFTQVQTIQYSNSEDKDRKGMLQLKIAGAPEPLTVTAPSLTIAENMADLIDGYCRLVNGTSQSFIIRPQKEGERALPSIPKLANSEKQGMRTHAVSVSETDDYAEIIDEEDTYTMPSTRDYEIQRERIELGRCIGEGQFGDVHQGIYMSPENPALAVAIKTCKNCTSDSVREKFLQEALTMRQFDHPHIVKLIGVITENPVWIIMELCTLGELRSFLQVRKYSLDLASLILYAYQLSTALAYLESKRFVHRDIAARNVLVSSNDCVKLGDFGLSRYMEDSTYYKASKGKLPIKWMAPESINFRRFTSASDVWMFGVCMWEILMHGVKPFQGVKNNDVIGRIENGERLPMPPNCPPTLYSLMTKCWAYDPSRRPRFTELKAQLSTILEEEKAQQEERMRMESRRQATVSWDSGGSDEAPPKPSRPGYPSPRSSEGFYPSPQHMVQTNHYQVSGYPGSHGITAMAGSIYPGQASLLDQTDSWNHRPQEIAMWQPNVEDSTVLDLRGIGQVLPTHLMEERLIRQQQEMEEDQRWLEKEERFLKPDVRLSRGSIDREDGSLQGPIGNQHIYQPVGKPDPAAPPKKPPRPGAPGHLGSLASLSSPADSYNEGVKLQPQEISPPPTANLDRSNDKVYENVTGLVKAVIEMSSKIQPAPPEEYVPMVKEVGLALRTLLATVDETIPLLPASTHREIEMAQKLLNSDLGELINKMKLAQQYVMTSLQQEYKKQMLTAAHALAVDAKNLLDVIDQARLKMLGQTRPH
UniProt P28482: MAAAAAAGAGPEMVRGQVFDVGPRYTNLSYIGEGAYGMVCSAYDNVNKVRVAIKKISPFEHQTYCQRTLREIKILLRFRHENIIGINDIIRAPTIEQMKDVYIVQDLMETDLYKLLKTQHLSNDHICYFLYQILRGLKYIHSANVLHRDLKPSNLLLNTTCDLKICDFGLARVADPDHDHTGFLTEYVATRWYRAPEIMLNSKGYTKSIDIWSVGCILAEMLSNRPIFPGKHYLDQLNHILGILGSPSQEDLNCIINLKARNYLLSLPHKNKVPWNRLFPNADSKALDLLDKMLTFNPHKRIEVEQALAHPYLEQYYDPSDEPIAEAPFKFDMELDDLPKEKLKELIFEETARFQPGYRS
UniProt P27361: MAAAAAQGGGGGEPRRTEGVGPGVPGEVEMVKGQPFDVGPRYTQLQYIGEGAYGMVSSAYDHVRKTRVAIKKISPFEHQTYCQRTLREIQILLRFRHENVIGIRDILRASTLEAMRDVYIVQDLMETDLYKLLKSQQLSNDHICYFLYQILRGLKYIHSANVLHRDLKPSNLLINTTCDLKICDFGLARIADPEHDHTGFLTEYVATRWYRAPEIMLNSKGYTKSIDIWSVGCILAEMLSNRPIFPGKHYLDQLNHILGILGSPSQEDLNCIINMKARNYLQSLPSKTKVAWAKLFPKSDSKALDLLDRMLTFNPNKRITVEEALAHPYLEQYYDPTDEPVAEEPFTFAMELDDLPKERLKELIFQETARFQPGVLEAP

Target: T1, p120-catenin (human (endogenous in A431)) (UniProt O60716)
T1 sequence: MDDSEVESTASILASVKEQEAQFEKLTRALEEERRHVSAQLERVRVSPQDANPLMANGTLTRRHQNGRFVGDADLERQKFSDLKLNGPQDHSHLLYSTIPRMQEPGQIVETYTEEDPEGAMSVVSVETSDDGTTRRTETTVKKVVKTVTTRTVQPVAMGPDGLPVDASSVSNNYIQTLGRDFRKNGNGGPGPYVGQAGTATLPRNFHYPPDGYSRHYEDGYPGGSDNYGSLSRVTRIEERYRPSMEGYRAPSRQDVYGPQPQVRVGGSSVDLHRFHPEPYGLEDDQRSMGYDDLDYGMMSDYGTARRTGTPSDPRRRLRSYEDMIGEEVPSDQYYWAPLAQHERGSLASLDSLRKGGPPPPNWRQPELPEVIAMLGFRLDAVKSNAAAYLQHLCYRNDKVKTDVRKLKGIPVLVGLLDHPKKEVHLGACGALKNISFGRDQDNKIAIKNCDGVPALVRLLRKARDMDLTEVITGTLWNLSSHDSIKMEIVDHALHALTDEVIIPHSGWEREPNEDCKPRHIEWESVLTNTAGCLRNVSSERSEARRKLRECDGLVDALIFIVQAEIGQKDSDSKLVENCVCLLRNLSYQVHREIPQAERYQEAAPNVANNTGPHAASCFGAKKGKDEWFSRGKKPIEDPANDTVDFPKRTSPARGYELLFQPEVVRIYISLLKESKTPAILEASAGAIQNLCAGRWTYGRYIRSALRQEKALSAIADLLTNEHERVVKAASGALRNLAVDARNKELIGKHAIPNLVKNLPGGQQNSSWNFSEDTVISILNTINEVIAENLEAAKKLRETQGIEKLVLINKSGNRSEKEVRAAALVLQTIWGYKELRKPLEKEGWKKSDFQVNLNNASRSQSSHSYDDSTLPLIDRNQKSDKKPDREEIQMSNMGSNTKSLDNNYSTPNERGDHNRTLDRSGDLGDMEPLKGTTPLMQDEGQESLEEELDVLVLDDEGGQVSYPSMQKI
Experiment: cross-linking + co-IP; A431 cells crosslinked in the cell with 0.5 mM DSP or 0.5 mM DTME (30 min, room temperature, PBS pH 7.4), lysed in RIPA buffer; p120 immunoprecipitated with mAb 15D2, eluted in reducing LSB; Western blot

Row | Substance | binding
1 | Focal Adhesion Kinase (from UniProt Q05397 1-1052) | no binding
2 | p42 MAPK (from UniProt P28482 1-360) | no binding
3 | p44 MAPK (from UniProt P27361 1-379) | no binding
